Assay results as given in PMC12040169 (PLOS Biology, 2025).
Some of the results follow.

system: T1, CTL2-GFP (C. trachomatis L2/434/Bu, GFP-expressing); parameters: species or system HeLa; Intracellular C. trachomatis growth in HeLa cells, bulk GFP fluorescence relative to DMSO; settings: bulk GFP, single well; 28.5 h, 10 µM; inhibitor
T1 construct: L2/434/Bu, GFP-expressing

| SMILES | % of control remaining [%] |
| --- | --- |
| CN(C)c1ccc(C(=O)N2C3CCC2CC(O)(c2ccco2)C3)cc1 (stereo not shown) [CBK284117] | 129.055 |
| O=C(Nc1ccccn1)c1c(O)n(Cc2ccccc2)c2ccccc2c1=O [CBK291213] | 102.008 |
| Cc1cc(C(=O)CSc2nnc(C(C)C)n2Cc2ccco2)c(C)n1C [CBK295178] | 161.528 |
| COC(=O)c1ccc(-c2cnc(OCC3CCN(C(=O)OC(C)(C)C)CC3)nc2)nc1 [CBK170130] | 121.695 |
| C=CCNC(=O)C1CCN(c2nc3ccccc3n2C)CC1 [CBK283955] | 109.885 |
| COc1cccc(-c2cccc(NS(=O)(=O)c3ccc4c(c3)CCC(=O)N4)c2)c1 [CBK286372] | 76.3572 |
| CC1(C)Cc2ccccc2C(NCC(=O)O)=N1 [CBK262562] | 100 |
| O=C(c1cc(C2CC2)on1)N1CCn2cc(C(F)(F)F)nc2C1 [CBK282425] | 117.493 |
| COc1ccc(-c2nc(NC(=O)c3cnccn3)cnc2-c2ccc(F)cc2)cc1 [CBK037150] | 145.789 |
| CCN1CC(C(=O)NCc2ccc(CN3CCCCC3)cc2)CC1=O (stereo not shown) [CBK281400] | 119.069 |
| O=C(CN1C(=O)N2CCN=C2c2ccccc21)N1CCCCC1 [CBK283865] | 99.1103 |
| Cc1cc(N2CCOCC2)nc2ccc(NC(=O)c3ccncc3)cc12 [CBK288587] | 104.929 |
| Cc1ccc(/C=N/NC(=O)CN(c2ccccc2)S(=O)(=O)c2ccccc2)c(C)c1C [CBK262098] | 120.359 |
| O=C(Nc1ccc2c(c1)nc1n2CCOC1)C1CCCCC1 [CBK307570] | 95.5855 |
| COCCC(=O)N1CCC(F)CC1 [CBK200399] | 71.4002 |
| CN(C)c1ccc(CCNC(=O)c2c3c(nn2C)CCCC3)cc1 [CBK281824] | 118.711 |
| CNC(=O)C1(Cc2ccc(-c3cccs3)cc2)CCN(C(=O)C2CCCCC2)CC1 [CBK285793] | 140.125 |
| CCNC(=O)Nc1ncc(-c2ccc(C(C)(C)C)cc2)c2cccnc12 [CBK070632] | 111.751 |
| O=C(NCCC1=CCCCC1)c1cnc2n(c1=O)CCS2 [CBK287373] | 118.389 |
| COc1cncc(-c2ccc(N3CCN(CCN(C)C)CC3)nc2)c1 [CBK037720] | 202.237 |
| COc1ccccc1OCC(=O)N1CCC2(CCNC2)C1 (stereo not shown) [CBK156703C] | 122.575 |
| Cc1c(C(=O)C2=C(O)C(=O)N(Cc3cccnc3)C2c2ccc(F)cc2)cnn1-c1ccccc1 (stereo not shown) [CBK266541] | 136.021 |

Two compounds picked at random from the list so far:

| SMILES | % of control remaining [%] |
| --- | --- |
| CN(C)c1ccc(C(=O)N2C3CCC2CC(O)(c2ccco2)C3)cc1 (stereo not shown) [CBK284117] | 129.055 |
| O=C(Nc1ccccn1)c1c(O)n(Cc2ccccc2)c2ccccc2c1=O [CBK291213] | 102.008 |
